This assay deals with C3AKF1 mice, osteogenic sarcoma HE10734 s.c., tumor weight T/C. Put plainly: NCI In Vivo Anticancer Drug Screen. Data for tumor model Osteogenic Sarcoma HE 10734 (subcutaneous) in C3AKF1 (CHKRF1) mice. The conditions noted are these: T/C endpoint: mean tumor weight, schedule: Q01DX010 (ip), higher T/C = larger tumour; for T/C: evaluated on day 20. How it is done:
The antitumor activity of compounds was measured in mice bearing transplantable tumors. Survival or tumor size were measured and the results are expressed as the measurement made in the treated group (T) divided by the measurement made in the vehicle treated control group (C). The tumor model used in this assay is Osteogenic Sarcoma HE 10734 (subcutaneous) in C3AKF1 (CHKRF1) mice

[1] abbreviates: dose: 100.0 mg/kg/injection, vehicle: saline.
[2] abbreviates: dose: 6.0 mg/kg/injection, vehicle: saline.
[3] abbreviates: dose: 20.0 mg/kg/injection, vehicle: carboxymethylcellulose (CMC).
Where [4] appears, read: dose: 50.0 mg/kg/injection, vehicle: carboxymethylcellulose (CMC).
[5] abbreviates: dose: 4.5 mg/kg/injection, vehicle: saline.
[6] abbreviates: dose: 25.0 mg/kg/injection, vehicle: saline.
[7] abbreviates: dose: 3.0 mg/kg/injection, vehicle: saline.

The list shows only some results of the screen, not a fair sample: it is rich in T/C values a quarter to a half above the control, in often repeated tests (any T/C) and in doses without a T/C. Further doses and runs are listed elsewhere. T/C: endpoint of the treated group in % of that of the vehicle group. Schedule codes are those of the source, taken here to give the interval after Q, in days (D) or hours (H), and the number of doses after X. Some T/C values carry the count of animals alive at the toxicity check (mostly the fifth day); where none is given, no animal had died by that day. Some entries give survivors of the animals treated and no T/C: the source holds a T/C of zero for them, seemingly a mark for toxic or unscored doses. Survivors were counted at the toxicity check, usually on the fifth day, unless a day is given; later deaths do not show. Some entries were tested several times; their values stand side by side, smallest first.

Among the data in PubChem BioAssay AID310 (DTP/NCI, 2004) are survivor count and T/C values, retold here.

Turning to `CCN(CC)Cc1cc(Nc2c3ccccc3nc3cc(Cl)ccc23)ccc1O`, under setting [1], the survivor count is reported as 0 of 7.
As to `CCCC(=O)NC1=C(N2CC2)C(=O)C(NC(=O)CCC)=C(N2CC2)C1=O`, the survivor count is recorded as 1 of 7 (dose: 2.6 mg/kg/injection, vehicle: saline); 0 of 7 (dose: 4.0 mg/kg/injection, vehicle: saline); 0 of 7 under setting [2].
Consider `CCC(=O)NC1=C(N2CC2)C(=O)C(NC(=O)CC)=C(N2CC2)C1=O`, for which the T/C (dose: 0.17 mg/kg/injection, vehicle: saline) was 137 % of control. The survivor count is 1 of 6 (dose: 2.4 mg/kg/injection, vehicle: saline) and 0 of 6 (dose: 4.8 mg/kg/injection, vehicle: saline).
Take `Nc1nc(SCc2ccccc2Cl)c2ncn(C3OC(CO)C(O)C3O)c2n1` (stereo not given): where the note is “dose: 100.0 mg/kg/injection, vehicle: carboxymethylcellulose (CMC)”, the survivor count is recorded as 1 of 6.
Regarding `CCOc1ccc(Nc2ncnc3nc[nH]c23)cc1CN(CCCl)CCCl`, the T/C (dose: 2.0 mg/kg/injection, vehicle: carboxymethylcellulose (CMC)) was 134 % of control. Further, the survivor count runs as follows: (dose: 16.0 mg/kg/injection, vehicle: carboxymethylcellulose (CMC)) 0 of 6; (dose: 32.0 mg/kg/injection, vehicle: carboxymethylcellulose (CMC)) 0 of 6; (dose: 64.0 mg/kg/injection, vehicle: carboxymethylcellulose (CMC)) 0 of 6.
On to `CC1(C)CC(C)(c2ccccc2)c2ccccc21` (stereo not given), for which the survivor count (dose: 600.0 mg/kg/injection, vehicle: saline) is on record as 1 of 6.
Regarding `Nc1nc(SCc2ccccc2Cl)c2[nH]cnc2n1`, the survivor count is 3 of 6 (dose: 70.0 mg/kg/injection, vehicle: saline); 1 of 6 and 4 of 7 (dose: 165.0 mg/kg/injection, vehicle: saline); 0 of 7 (dose: 245.0 mg/kg/injection, vehicle: saline); 0 of 7 (dose: 370.0 mg/kg/injection, vehicle: saline).
As for `CCC1=C(c2cc(Cl)c3ccccc3c2OCC(=O)O)OC(CC)(C(=O)c2cc(Cl)c3ccccc3c2OCC(=O)O)CC1` (stereo not given), the survivor count by setting is: (dose: 8.0 mg/kg/injection, vehicle: carboxymethylcellulose (CMC)) 0 of 7; (dose: 13.0 mg/kg/injection, vehicle: carboxymethylcellulose (CMC)) 0 of 7; under setting [3], 0 of 7; (dose: 30.0 mg/kg/injection, vehicle: carboxymethylcellulose (CMC)) 0 of 6 and 0 of 7; (dose: 60.0 mg/kg/injection, vehicle: carboxymethylcellulose (CMC)) 0 of 6; (dose: 120.0 mg/kg/injection, vehicle: carboxymethylcellulose (CMC)) 0 of 6. Moreover, the survivor count (dose: 240.0 mg/kg/injection, vehicle: carboxymethylcellulose (CMC)) is reported as 0 of 6.
On to `O=c1c[n+](-c2ccccc2)[nH]o1`, for which the survivor count was 3 of 7 (dose: 180.0 mg/kg/injection, vehicle: carboxymethylcellulose (CMC)); 0 of 7 (dose: 360.0 mg/kg/injection, vehicle: carboxymethylcellulose (CMC)); 0 of 7 (dose: 720.0 mg/kg/injection, vehicle: carboxymethylcellulose (CMC)).
As for `C=CC(=O)NCNC(=O)C=C`, the survivor count (dose: 150.0 mg/kg/injection, vehicle: saline) is recorded as 3 of 8 and the survivor count (dose: 300.0 mg/kg/injection, vehicle: saline) was 0 of 8.
In the case of `O=S1(=O)CCCO1`, the T/C under setting [3] is 149 % of control. Moreover, the survivor count (dose: 160.0 mg/kg/injection, vehicle: carboxymethylcellulose (CMC)) was 0 of 6.
For the compound `Cc1ccc(N2CCN(CCCN3CCN(c4ccc(Cl)cc4)CC3)CC2)cc1`, the survivor count under setting [4] was 2 of 6.
Regarding `S=c1c2[nH]cnc2ncn1CCSC1=NC=NC2=NC=NC21` (stereo not given), under setting [1], the T/C is 126 % of control.
On to `O=C(O)C(=O)c1ccc(-c2ccccc2)cc1`, for which the survivor count is 3 of 6 under setting [4]; 1 of 6 (dose: 75.0 mg/kg/injection, vehicle: carboxymethylcellulose (CMC)); 3 of 6 (dose: 110.0 mg/kg/injection, vehicle: carboxymethylcellulose (CMC)).
Turning to `CCn1cnc2c(SC)nc(N)nc21`, the survivor count (dose: 510.0 mg/kg/injection, vehicle: saline) is listed as 1 of 6.
Regarding `NC(CCSCc1ccc(N(CCCl)CCCl)cc1)C(=O)O` (stereo not given), the survivor count is listed as 2 of 6 under setting [5]; 2 of 6 (dose: 81.0 mg/kg/injection, vehicle: saline); 2 of 6 (dose: 120.0 mg/kg/injection, vehicle: saline).
In the case of `CCc1c(CC(=O)O)c2cc(C)ccc2n1Cc1ccc(Cl)cc1`, the T/C under setting [6] was 141 % of control [6 of 7 alive]. The survivor count runs as follows: under setting [1], 0 of 7; (dose: 200.0 mg/kg/injection, vehicle: saline) 0 of 7.
Take `CCC[CH2][Sn]([CH2]CCC)([CH2]CCC)[O]C(=O)CC[S][Sn]([CH2]CCC)([CH2]CCC)[CH2]CCC`: the T/C was 125 % of control under setting [7] and 133 % of control [5 of 6 alive] under setting [2]. Also, under “dose: 48.0 mg/kg/injection, vehicle: saline”, the survivor count is reported as 2 of 6.
In the case of `CCC[CH2][Sn]1([CH2]CCC)[O]C(=O)C[S]1`, the T/C (dose: 3.12 mg/kg/injection, vehicle: saline) is 133 % of control [5 of 6 alive]. For the same compound, the survivor count by setting is: (dose: 6.25 mg/kg/injection, vehicle: saline) 0 of 6; (dose: 12.5 mg/kg/injection, vehicle: saline) 0 of 6; under setting [6], 0 of 6.
Take `O=c1[nH]c2cc(Cl)c(Cl)cc2o1`: the survivor count (dose: 125.0 mg/kg/injection, vehicle: carboxymethylcellulose (CMC)) is 3 of 6.
For `O=C1C=Cc2ccc(O)cc2C1=O`, the survivor count is 4 of 7 (dose: 2.0 mg/kg/injection, vehicle: saline); 0 of 7 under setting [7]; 0 of 7 under setting [5]; 0 of 7 (dose: 6.7 mg/kg/injection, vehicle: saline).
